Some results were stated once for a whole list of compounds, not compound by compound. At least one compound was matched to its structure with a doubt left.
System: fibroblast growth factor-23 (FGF23)
Test: Serum FGF23 level in adenine-fed rats
Type: in vivo
Settings: adenine-fed rats compared to control-diet fed animals (FIG. 6)

| SMILES | elevation of FGF23 levels |
| --- | --- |
| C=C1/C(=C\C=C2/CCC[C@]3(C)[C@@H]([C@H](C)/C=C/[C@H](C)C(C)(C)O)CC[C@@H]23)C[C@@H](O)C[C@@H]1O [1,25-(OH)2-D2, 1,25-dihydroxyvitamin D2] | at least 74 fold |
| C=C1CC[C@H](O)C/C1=C/C=C1\CCC[C@]2(C)[C@@H]([C@H](C)CCCC(C)(C)O)CC[C@@H]12 [25-OH-D3, 25-hydroxyvitamin D3] | at least 74 fold |

From patent publication US10302660B2, “Methods useful for vitamin D deficiency and related disorders” (OPKO RENAL, LLC, priority 2008, dated 2019)
